The supplement of paper PMC3741180, “A Novel High Throughput Biochemical Assay to Evaluate the HuR Protein-RNA Complex Formation” (PLoS ONE, 2013)
Several values for one entry are separate records, joined by “and”; a condition that tells them apart may be missing. Equal values may be shown once. Some of the results follow. Most values lie within the scatter of the assay; repeated measurements hardly agree. Numbered stars: 1 amine (or outer) side, 2 acyl side, 3 side chain; on linkers, the order of the positions; unused ones are H or OH. Bridge positions count the residues as written; N and C are the ends. Square brackets hold non-standard residues; d marks the D form. Peptide text beside a SMILES is read from it. I, II: the chains in the order shown. Actinocin(9to1) = Cc1c2oc3c(C)ccc(C(=O)[*:1])c3nc-2c(C(=O)[*:2])c(N)c1=O; NMeV = CN[C@H](C(=O)O)C(C)C; Sar = CNCC(=O)O

Chains of the proteins cited; added tags and fusions are not shown.
UniProt Q15717, whole entry: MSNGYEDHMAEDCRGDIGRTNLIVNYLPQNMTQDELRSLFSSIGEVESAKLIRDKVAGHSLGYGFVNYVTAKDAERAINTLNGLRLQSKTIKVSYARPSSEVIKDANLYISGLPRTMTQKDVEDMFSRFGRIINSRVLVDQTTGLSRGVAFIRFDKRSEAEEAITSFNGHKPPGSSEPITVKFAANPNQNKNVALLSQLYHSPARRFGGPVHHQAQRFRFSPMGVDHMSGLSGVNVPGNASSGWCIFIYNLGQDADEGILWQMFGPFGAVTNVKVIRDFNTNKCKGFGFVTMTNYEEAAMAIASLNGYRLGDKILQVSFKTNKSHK

Target: HuR (ELAVL1) - TNFalpha ARE RNA complex (UniProt Q15717)
Assay: AlphaScreen HuR-RNA complex signal Z-score relative to positive (Bi-TNF, DMSO) controls (Z-score (SD units of positive control)); higher = more complex signal
Details: screen stage: primary screen; compound concentration: 25 nM

Compound | AlphaScreen HuR-RNA complex signal Z-score
COCCOC(=O)C1=C(C)NC(C)=C(C(=O)OC(C)C)C1c1cccc([N+](=O)[O-])c1 (centres undefined) | 0.639
NCCS | 1.83
CN1C(C(=O)Nc2ccccn2)=C(O)c2ccccc2S1(=O)=O | 5.22
Cc1c(NC(C)C)c(=O)n(-c2ccccc2)n1C | 2.23
O=c1cc(-c2ccc(O)cc2)oc2cc(O[C@@H]3O[C@H](CO)[C@@H](O)[C@H](O)[C@H]3O)cc(O)c12 | -0.176
CCCCCCCCCCOc1cc2c(O)c(C(=O)OCC)cnc2cc1OCC | -1.69
CC(C)c1cccc(=O)c(O)c1 | 0.991
COc1ccc([C@@H]2Sc3ccccc3N(CCN(C)C)C(=O)[C@@H]2OC(C)=O)cc1 | 4.2
Cc1cn([C@H]2C[C@H](N=[N+]=[N-])[C@@H](CO)O2)c(=O)[nH]c1=O | 0.272
CC(C[N+](C)(C)C)OC(N)=O (centres undefined) | 0.37
CC(=O)O[C@@H]1CC[C@@]2(C)C(C[C@@H](OC(C)=O)[C@@]3(C)C4=CC(=O)O[C@@H](c5ccoc5)[C@]4(C)CCC23)C1(C)C (stereo partly drawn) [3alpha-ACETOXYDIHYDRODEOXYGEDUNIN] | 0.804
O=C(O)CCCC[C@@H]1CCSS1 | 1.11
CC(=O)O[C@H]1C[C@@H](O)C(C)(C)[C@@H]2C[C@@H](OC(C)=O)[C@]3(C)[C@H](CC[C@@]4(C)[C@@H](c5ccoc5)OC(=O)[C@H]5O[C@@]534)[C@@]12C | 0.0179
C=C(C)[C@H]1COc2cc3oc(=O)ccc3cc2O1 | 2.7
O=C1N=C(O)NC1(c1ccccc1)c1ccccc1 | 0.919
COc1cc(NS(=O)(=O)c2ccc(N)cc2)nc(OC)n1 | 0.221
CC[N+](CC)(CC(=O)Nc1c(C)cccc1C)Cc1ccccc1 | 1.68
COc1cc2ccc(=O)oc2cc1O | 0.714
CC1(C)O[C@@H]2[C@@H](CO[C@@]3(COS(N)(=O)=O)OC(C)(C)O[C@@H]23)O1 | -1.05
COc1cc2oc3cc(OC)c(OC)c(CC=C(C)C)c3c(=O)c2c(O)c1CC=C(C)C | 0.396
CC(=O)OCC(=O)[C@@]1(O)[C@H](OC(C)=O)C[C@H]2[C@@H]3CCC4=CC(=O)C=C[C@]4(C)[C@@]3(F)[C@@H](O)C[C@@]21C | -1.41
O=C(C=Cc1ccc(O)cc1)c1ccccc1O | 1.35
COc1ccc2c3c1O[C@H]1C[C@@H](O)C=C[C@@]31CCN(C)C2 | 1.16

Compound | AlphaScreen HuR-RNA complex signal Z-score
CCCC(=O)O[C@]1(C(=O)CO)CC[C@H]2[C@@H]3CCC4=CC(=O)CC[C@]4(C)[C@H]3[C@@H](O)C[C@@]21C | 0.968
CC1(C)S[C@@H]2[C@H](NC(=O)COc3ccccc3)C(=O)N2[C@H]1C(=O)O | 5.48
Cc1nnc(SCC2=C(C(=O)O)N3C(=O)[C@@H](NC(=O)Cn4cnnn4)[C@H]3SC2)s1 | -3.66
O=c1[nH]c(=O)n([C@H]2C[C@H](O)[C@@H](CO)O2)cc1C(F)(F)F | 2.08
O=C1OC(=O)[C@H]2[C@@H]1[C@@H]1CC[C@H]2O1 | 0.868
C[C@]12CCC3c4ccc(OS(=O)(=O)O)cc4CCC3C1CC[C@H]2O (some centres undefined) | 2.06
CC(C)NC(=N)NC(=N)Nc1ccc(Cl)cc1 | -2.35
CC(C)[C@@H]1CC[C@@H](C)CC1=O | 2.36
NCCCCN | 1.58
CC1=CC2C(CC1=O)C(C)=CCC2C(C)C (centres undefined) | 1.5
CCCCCCCCNC(C)C(O)c1ccc(SC(C)C)cc1 (centres undefined) | 1.31
C[C@H]1O[C@@H](O[C@H]2[C@@H](O)C[C@H](O[C@H]3[C@@H](O)C[C@H](O[C@H]4CC[C@@]5(C)[C@H](CC[C@@H]6[C@@H]5CC[C@]5(C)[C@@H](C7=CC(=O)OC7)CC[C@]65O)C4)O[C@@H]3C)O[C@@H]2C)C[C@H](O)[C@@H]1O | -0.879
C=C(C)[C@@H]1CC[C@]2(C)CC[C@]3(C)[C@H](CC[C@@H]4[C@@]5(C)CC[C@H](O)C(C)(C)[C@@H]5CC[C@]43C)[C@@H]12 | 0.231
S=c1[nH]cnc2nc[nH]c12 | -4.74
COc1cc2c(cc1OC)[C@@H]1C(=O)c3ccc4c(c3O[C@@H]1CO2)C=CC(C)(C)O4 | 0.907
CC(=O)/C=C\[C@@H]1[C@@]2(C)CCCC(C)(C)C2CC[C@@]1(C)O (some centres undefined) | 2.31
Cc1c(C)c2c(c(C)c1O)CCC(C)(CCCC(C)CCCC(C)CCCC(C)C)O2 (stereo not drawn) [alpha-TOCHOPHEROL] | 0.315
CC(=O)O[C@]1(C(C)=O)CC[C@H]2[C@@H]3C=C(C)C4=CC(=O)CC[C@]4(C)[C@H]3CC[C@@]21C | 2.3
NC[C@H]1O[C@H](O[C@H]2[C@H](O)[C@@H](O[C@H]3O[C@H](CO)[C@@H](O)[C@H](N)[C@H]3O)[C@H](N)C[C@@H]2N)[C@H](N)[C@@H](O)[C@@H]1O | -0.118
Nc1nnc(-c2cccc(Cl)c2Cl)c(N)n1 | -4.08
O=C(O)/C=C(\CC(=O)O)C(=O)O | 3.16
Nc1nc(=O)[nH]cc1F | 0.794
OCC(O)C(O)C(O)CO (centres undefined) | 1.73 and 1.91

Compound | AlphaScreen HuR-RNA complex signal Z-score
CC1CCC2(OC1)OC1CC3C4CCC5C[C@@H](O)CCC5(C)C4=CCC3(C)C1[C@@H]2C (stereo partly drawn) [3beta-HYDROXYISOALLOSPIROST-9(11)-ENE] | 1.45
CCC(C)C(=O)OC1[C@@H]2CC3=C4CC(=O)O[C@@H](c5ccoc5)[C@]4(C)CCC3[C@@](C)(C2=O)[C@@H](CC(=O)OC)C1(C)C (some centres undefined) | 0.0171
CC[C@H](C)C(=O)O[C@H]1C[C@H](O)C=C2C=C[C@H](C)[C@H](CC[C@@H](O)C[C@@H](O)CC(=O)O)[C@H]21 | 1.75
CC1=C(C(=O)O)N2C(=O)[C@@H](NC(=O)[C@H](N)c3ccccc3)[C@H]2SC1 | 1.51
CC(C)(C)NCC(O)COc1cccc2c1CC(O)C(O)C2 (centres undefined) | 0.124
CN(C)CC(=O)OC[C@@H](O)[C@@H](O)[C@H](O)[C@@H](O)C(=O)O | 0.562
Cc1cc(O)cc(O)c1C(=O)O | 2.26
COc1ccc2cc3[n+](cc2c1OC)CCc1cc2c(cc1-3)OCO2 | 0.89
COc1ccc2c(c1)OC[C@@H](Cc1ccc(OC)c(OC)c1)[C@@H]2O | 1.56
COC(=O)C[C@H]1C(C)(C)C(=O)[C@@H]2CC3C4=CC(=O)O[C@@H](c5ccoc5)[C@]4(C)CC[C@@H]3[C@@]1(C)C2=O (some centres undefined) | -0.0269
CC(C)=CC1C(C(=O)O)C1(C)C (centres undefined) | 0.876
CC(C)Cn1c(=O)n(C)c(=O)c2nc[nH]c21 | 1.28
O=C1C(O)=C(O)C(=O)C(O)=C1O | 0.261
Cc1c2oc3c(C)ccc(C(=O)N[C@@H]4C(=O)N[C@H](C(C)C)C(=O)N5CCC[C@H]5C(=O)N(C)CC(=O)N(C)[C@@H](C(C)C)C(=O)O[C@@H]4C)c3nc-2c(C(=O)N[C@@H]2C(=O)N[C@H](C(C)C)C(=O)N3CCC[C@H]3C(=O)N(C)CC(=O)N(C)[C@@H](C(C)C)C(=O)O[C@@H]2C)c(N)c1=O (I: T[dV]P[Sar][NMeV] / II: T[dV]P[Sar][NMeV]; ester I:1-I:C, II:1-II:C; linker I:N-II:N via Actinocin(9to1)) | 0.332
COc1ccc2c(c1)c(CC(=O)OCC(=O)O)c(C)n2C(=O)c1ccc(Cl)cc1 | 1.65
COCCCOc1cc(C[C@@H](C[C@H](N)[C@@H](O)C[C@H](C(=O)NCC(C)(C)C(N)=O)C(C)C)C(C)C)ccc1OC | -0.11
C#C[C@]1(OC(C)=O)CC[C@H]2[C@@H]3CCC4=CC(=O)CC[C@@H]4[C@H]3CC[C@@]21C | 1.69
CCCCOC(=O)c1ccc(O)cc1 | 2.72
CC(=O)/N=c1/sc(S(N)(=O)=O)nn1C | 1.58
CC1=CC(=O)c2ccccc2C1=O | 0.382
COc1ccc(-c2cc(=O)c3c(O)c(OC)c(OC)c(OC)c3o2)cc1OC | -0.606
N=C(N)N1CCc2ccccc2C1 | 1.29
CCCCC1C(=O)N(c2ccccc2)N(c2ccccc2)C1=O | 1.13

Compound | AlphaScreen HuR-RNA complex signal Z-score
O=C(O)/C=C/C=C/c1ccccc1 | 4.14
Cc1ccc(C(=O)C(C)CN2CCCCC2)cc1 (centres undefined) | 0.984
CNCC[C@@H](Oc1ccccc1C)c1ccccc1 | -0.651
COc1cc(C(C)=O)cc(OC)c1O | 1.98
CC(C)=CCC/C(C)=C\CO | 2.12
COCCCOc1ccnc(C[S+]([O-])c2nc3ccccc3[nH]2)c1C (centres undefined) | -0.402
C#CC1(O)CC[C@H]2[C@@H]3CCC4=CC(=O)CC[C@@H]4[C@H]3CC[C@@]21CC (mixture of isomers) | 2.48
COc1cc(O)c(C(=O)/C=C/c2ccc(O)c(OC)c2)c(OC)c1 | 1.08
CC(=O)OCC(=O)[C@@]12OC3(CCCC3)O[C@@H]1C[C@H]1[C@@H]3CCC4=CC(=O)C=C[C@]4(C)[C@@]3(F)[C@@H](O)C[C@@]12C | 1
COc1cc2c(cc1OC)Cc1cc(OC)c(OC)cc1Cc1cc(OC)c(OC)cc1C2 | 2.45
N[C@@H](CC(=O)N1CCn2c(nnc2C(F)(F)F)C1)Cc1cc(F)c(F)cc1F | 2.73
C[C@@H]1O[C@@H](O[C@H]2[C@H](Oc3cc(O)c4c(c3)O[C@H](c3ccc(O)cc3)CC4=O)O[C@H](CO)[C@@H](O)[C@@H]2O)[C@H](O)[C@H](O)[C@H]1O | 0.0824
O=C(Nc1ccccc1)OCC(CN1CCCCC1)OC(=O)Nc1ccccc1 (centres undefined) | -0.699
COc1c(O)cc(O)cc1O | 1.2
C[C@@H]1O[C@@H](OC[C@H]2O[C@@H](Oc3c(-c4ccc(O)c(O)c4)oc4cc(O)cc(O)c4c3=O)[C@H](O)[C@@H](O)[C@@H]2O)[C@H](O)[C@H](O)[C@H]1O [RUTOSIDE  (rutin)] | 0.112
CCCC(=O)Nc1ccc(OCC(O)CNC(C)C)c(C(C)=O)c1 (centres undefined) | -3.05
CC(=O)Nc1ccc(OCC(O)CNC(C)C)cc1 (centres undefined) | 2.77
CN1[C@@H]2CC[C@H]1C[C@@H](OC(c1ccccc1)c1ccccc1)C2 | 0.456
C=CCc1ccccc1OCC(O)CNC(C)C (centres undefined) | 3.42
NC[C@H]1CC[C@H](C(=O)O)CC1 | 1.53

Laid out differently: 19 of the compounds above.
Compound	AlphaScreen HuR-RNA complex signal Z-score
OCC(O)C(O)C(O)CO (centres undefined)	1.73 and 1.91
CC1CCC2(OC1)OC1CC3C4CCC5C[C@@H](O)CCC5(C)C4=CCC3(C)C1[C@@H]2C (stereo partly drawn) [3beta-HYDROXYISOALLOSPIROST-9(11)-ENE]	1.45
CCC(C)C(=O)OC1[C@@H]2CC3=C4CC(=O)O[C@@H](c5ccoc5)[C@]4(C)CCC3[C@@](C)(C2=O)[C@@H](CC(=O)OC)C1(C)C (some centres undefined)	0.0171
CC[C@H](C)C(=O)O[C@H]1C[C@H](O)C=C2C=C[C@H](C)[C@H](CC[C@@H](O)C[C@@H](O)CC(=O)O)[C@H]21	1.75
CC1=C(C(=O)O)N2C(=O)[C@@H](NC(=O)[C@H](N)c3ccccc3)[C@H]2SC1	1.51
CC(C)(C)NCC(O)COc1cccc2c1CC(O)C(O)C2 (centres undefined)	0.124
CN(C)CC(=O)OC[C@@H](O)[C@@H](O)[C@H](O)[C@@H](O)C(=O)O	0.562
Cc1cc(O)cc(O)c1C(=O)O	2.26
COc1ccc2cc3[n+](cc2c1OC)CCc1cc2c(cc1-3)OCO2	0.89
COc1ccc2c(c1)OC[C@@H](Cc1ccc(OC)c(OC)c1)[C@@H]2O	1.56
COC(=O)C[C@H]1C(C)(C)C(=O)[C@@H]2CC3C4=CC(=O)O[C@@H](c5ccoc5)[C@]4(C)CC[C@@H]3[C@@]1(C)C2=O (some centres undefined)	-0.0269
CC(C)=CC1C(C(=O)O)C1(C)C (centres undefined)	0.876
CC(C)Cn1c(=O)n(C)c(=O)c2nc[nH]c21	1.28
O=C1C(O)=C(O)C(=O)C(O)=C1O	0.261
Cc1c2oc3c(C)ccc(C(=O)N[C@@H]4C(=O)N[C@H](C(C)C)C(=O)N5CCC[C@H]5C(=O)N(C)CC(=O)N(C)[C@@H](C(C)C)C(=O)O[C@@H]4C)c3nc-2c(C(=O)N[C@@H]2C(=O)N[C@H](C(C)C)C(=O)N3CCC[C@H]3C(=O)N(C)CC(=O)N(C)[C@@H](C(C)C)C(=O)O[C@@H]2C)c(N)c1=O (I: T[dV]P[Sar][NMeV] / II: T[dV]P[Sar][NMeV]; ester I:1-I:C, II:1-II:C; linker I:N-II:N via Actinocin(9to1))	0.332
COc1ccc2c(c1)c(CC(=O)OCC(=O)O)c(C)n2C(=O)c1ccc(Cl)cc1	1.65
COCCCOc1cc(C[C@@H](C[C@H](N)[C@@H](O)C[C@H](C(=O)NCC(C)(C)C(N)=O)C(C)C)C(C)C)ccc1OC	-0.11
C#C[C@]1(OC(C)=O)CC[C@H]2[C@@H]3CCC4=CC(=O)CC[C@@H]4[C@H]3CC[C@@]21C	1.69
CCCCOC(=O)c1ccc(O)cc1	2.72
